{"source": "patent US20050244864A1", "about": "“Development and use of fluorescent probes of unbound analytes” (priority 2004, published 2005)", "molecules": {"B1": {"name": "L2P12 G9: acrylodan-labeled rI-FABP-L72A mutein: M18 L, G31 WT, F55 WT, A73 V (protein, UniProt P02693 2-132, looked up, variant M18L L72A A73V)", "Fatty acid-binding protein, …": "AFDGTWKVDRNENYEKFLEKMGINVVKRKLGAHDNLKLTITQEGNKFTVKESSNFRNIDVVFELGVDFAYSAVDGTELTGTWTMEGNKLVGKFKRVDNGKELIAVREISGNELIQTYTYEGVEAKRIFKKE", "modifications": "acrylodan label", "notes": "acrylodan-labeled rI-FABP-L72A mutein: M18 L, G31 WT, F55 WT, A73 V"}, "B2": {"name": "L2P21 C1: acrylodan-labeled rI-FABP-L72A mutein: M18 I, G31 Y, F55 WT, A73 V (protein, UniProt P02693 2-132, looked up, variant M18I G31Y L72A A73V)", "Fatty acid-binding protein, …": "B1 Fatty acid-binding protein, … with L18I, G31Y", "modifications": "acrylodan label", "notes": "acrylodan-labeled rI-FABP-L72A mutein: M18 I, G31 Y, F55 WT, A73 V"}, "B3": {"name": "D74F, L72A: acrylodan-labeled rI-FABP mutein D74F, L72A (protein)", "chain": "B1 Fatty acid-binding protein, … with L18M, V73A, D74F"}, "B4": {"name": "L78F, L72A: acrylodan-labeled rI-FABP mutein L78F, L72A (protein)", "chain": "B1 Fatty acid-binding protein, … with L18M, V73A, L78F"}, "B5": {"name": "W82F, L72A: acrylodan-labeled rI-FABP mutein W82F, L72A (protein)", "chain": "B1 Fatty acid-binding protein, … with L18M, V73A, W82F"}, "B6": {"name": "R106W, L72A: acrylodan-labeled rI-FABP mutein R106W, L72A (protein)", "chain": "B1 Fatty acid-binding protein, … with L18M, V73A, R106W"}, "B7": {"name": "Y117A, L72A: acrylodan-labeled rI-FABP mutein Y117A, L72A (protein)", "chain": "B1 Fatty acid-binding protein, … with L18M, V73A, Y117A"}, "B8": {"name": "Y117S, L72A: acrylodan-labeled rI-FABP mutein Y117S, L72A (protein)", "chain": "B1 Fatty acid-binding protein, … with L18M, V73A, Y117S"}, "B9": {"name": "L72A: acrylodan-labeled rI-FABP clone with L72A (the template mutein) (protein, listed as Rattus norvegicus)", "chain": "AFDGTWKVDRNENYEKFMEKMGINVVKRKLGAHDNLKLTITQEGNKFTVKESSNFRNIDVVFELGVDFAYSAADGTELTGTWTMEGNKLVGKFKRVDNGKELIAVREISGNELIQTYTYEGVEAKRIFKKDRGHHHHHH", "modifications": "acrylodan label; MUTAGEN (72)...(72) rat intestinal fatty acid binding protein with alanine substitution for leucine at position 72"}, "B10": {"name": "L72G: acrylodan-labeled rI-FABP mutein L72G (protein)", "chain": "B1 Fatty acid-binding protein, … with L18M, A72G, V73A"}, "B11": {"name": "L72M: acrylodan-labeled rI-FABP mutein L72M (protein)", "chain": "B1 Fatty acid-binding protein, … with L18M, A72M, V73A"}, "B12": {"name": "A73F, L72A: acrylodan-labeled rI-FABP mutein A73F, L72A (protein)", "chain": "B1 Fatty acid-binding protein, … with L18M, V73F"}, "B13": {"name": "A73I, L72A: acrylodan-labeled rI-FABP mutein A73I, L72A (protein)", "chain": "B1 Fatty acid-binding protein, … with L18M, V73I"}, "B14": {"name": "L1P12 F12: acrylodan-labeled rI-FABP mutein: Y14 L, L38 wt, L72 G, Y117 V (protein, UniProt P02693 2-132, looked up, variant Y14L L72G Y117V)", "Fatty acid-binding protein, …": "B1 Fatty acid-binding protein, … with Y14L, L18M, A72G, V73A, Y117V", "modifications": "acrylodan label", "notes": "acrylodan-labeled rI-FABP mutein: Y14 L, L38 wt, L72 G, Y117 V"}, "B15": {"name": "L1P2 F7: acrylodan-labeled rI-FABP mutein: Y14 I, L38 wt, L72 G, Y117 V (protein, UniProt P02693 2-132, looked up, variant Y14I L72G Y117V)", "Fatty acid-binding protein, …": "B1 Fatty acid-binding protein, … with Y14I, L18M, A72G, V73A, Y117V", "modifications": "acrylodan label", "notes": "acrylodan-labeled rI-FABP mutein: Y14 I, L38 wt, L72 G, Y117 V"}, "B16": {"name": "L1P7 B11: acrylodan-labeled rI-FABP mutein: Y14 I, L38 I, L72 V, Y117 wt (protein, UniProt P02693 2-132, looked up, variant Y14I L38I L72V)", "Fatty acid-binding protein, …": "B1 Fatty acid-binding protein, … with Y14I, L18M, L38I, A72V, V73A", "modifications": "acrylodan label", "notes": "acrylodan-labeled rI-FABP mutein: Y14 I, L38 I, L72 V, Y117 wt"}, "B17": {"name": "L1P12 G10: acrylodan-labeled rI-FABP mutein: Y14 I, L38 wt, L72 wt, Y117 wt (protein, UniProt P02693 2-132, looked up, variant Y14I)", "Fatty acid-binding protein, …": "B1 Fatty acid-binding protein, … with Y14I, L18M, A72L, V73A", "modifications": "acrylodan label"}, "B18": {"name": "L1P3 D6: acrylodan-labeled rI-FABP mutein: Y14 L, L38 wt, L72 wt, Y117 wt (protein, UniProt P02693 2-132, looked up, variant Y14L)", "Fatty acid-binding protein, …": "B1 Fatty acid-binding protein, … with Y14L, L18M, A72L, V73A", "modifications": "acrylodan label"}, "B19": {"name": "L1P1 F7: acrylodan-labeled rI-FABP mutein: Y14 L, L38 M, L72 wt, Y117 F (protein, UniProt P02693 2-132, looked up, variant Y14L L38M Y117F)", "Fatty acid-binding protein, …": "B1 Fatty acid-binding protein, … with Y14L, L18M, L38M, A72L, V73A, Y117F", "modifications": "acrylodan label", "notes": "acrylodan-labeled rI-FABP mutein: Y14 L, L38 M, L72 wt, Y117 F"}, "B20": {"name": "L1P14 A9: acrylodan-labeled rI-FABP mutein: Y14 L, L38 wt, L72 G, Y117 I (protein, UniProt P02693 2-132, looked up, variant Y14L L72G Y117I)", "Fatty acid-binding protein, …": "B1 Fatty acid-binding protein, … with Y14L, L18M, A72G, V73A, Y117I", "modifications": "acrylodan label", "notes": "acrylodan-labeled rI-FABP mutein: Y14 L, L38 wt, L72 G, Y117 I"}, "B21": {"name": "L1P11 F12: acrylodan-labeled rI-FABP mutein: Y14 L, L38 I, L72 wt, Y117 wt (protein, UniProt P02693 2-132, looked up, variant Y14L L38I)", "Fatty acid-binding protein, …": "B1 Fatty acid-binding protein, … with Y14L, L18M, L38I, A72L, V73A", "modifications": "acrylodan label"}, "B22": {"name": "L1P17 A8: acrylodan-labeled rI-FABP mutein: Y14 wt, L38 M, L72 G, Y117 F (protein, UniProt P02693 2-132, looked up, variant L38M L72G Y117F)", "Fatty acid-binding protein, …": "B1 Fatty acid-binding protein, … with L18M, L38M, A72G, V73A, Y117F", "modifications": "acrylodan label", "notes": "acrylodan-labeled rI-FABP mutein: Y14 wt, L38 M, L72 G, Y117 F"}, "B23": {"name": "L1P9 G10: acrylodan-labeled rI-FABP mutein: Y14 wt, L38 I, L72 G, Y117 wt (protein, UniProt P02693 2-132, looked up, variant L38I L72G)", "Fatty acid-binding protein, …": "B1 Fatty acid-binding protein, … with L18M, L38I, A72G, V73A", "modifications": "acrylodan label"}, "B24": {"name": "L1P16 G10: acrylodan-labeled rI-FABP mutein: Y14 W, L38 wt, L72 M, Y117 A (protein, UniProt P02693 2-132, looked up, variant Y14W L72M Y117A)", "Fatty acid-binding protein, …": "B1 Fatty acid-binding protein, … with Y14W, L18M, A72M, V73A, Y117A", "modifications": "acrylodan label", "notes": "acrylodan-labeled rI-FABP mutein: Y14 W, L38 wt, L72 M, Y117 A"}, "B25": {"name": "L1P5 A10: acrylodan-labeled rI-FABP mutein: Y14 wt, L38 wt, L72 wt, Y117 A (protein, UniProt P02693 2-132, looked up, variant Y117A)", "Fatty acid-binding protein, …": "B1 Fatty acid-binding protein, … with L18M, A72L, V73A, Y117A", "modifications": "acrylodan label", "notes": "acrylodan-labeled rI-FABP mutein: Y14 wt, L38 wt, L72 wt, Y117 A"}, "B26": {"name": "L1P8 D4: acrylodan-labeled rI-FABP mutein: Y14 M, L38 wt, L72 M, Y117 A (protein, UniProt P02693 2-132, looked up, variant Y14M L72M Y117A)", "Fatty acid-binding protein, …": "B1 Fatty acid-binding protein, … with Y14M, L18M, A72M, V73A, Y117A", "modifications": "acrylodan label", "notes": "acrylodan-labeled rI-FABP mutein: Y14 M, L38 wt, L72 M, Y117 A"}}, "note": "Numbering of substitutions follows the chain as printed. In names and notes the source's numbering stands."}
{"assay": "Mutant probe screening: baseline fluorescence ratio Ro and fatty acid response phenotype", "type": "binding", "settings": "fluorescence ratio for zero FFAu concentration", "protocol": "(§1) The intensity ratio (“R” value) for a given probe is determined. The ratio is calculated using the following formula: R=Fλ1/Fλ2 wherein, Fλ1, is the measured fluorescence intensities (intensity of sample with probe present minus intensity of sample without probe present) at wavelength 1 and Fλ2 is the measured fluorescence intensities (intensity of sample with probe present minus intensity of sample without probe present) at wavelength 2. Then, for a given probe, ΔR, the difference in R value between the measurement in the presence of the analyte and in the absence of the analyte, is calculated as follows: ΔR=R+analyte−R0 The ΔR value for a given probe is then compared to a reference probe, for example, ADIFAB or ADIFAB2, by ΔR/ΔRreference. This value is an indication of how dissimilar the new probe (derived by mutation of the template) is to the reference. By this method, probes with new and useful characteristics may be identified. Measurements of fluorescence intensities are obtained using standard techniques.\n(§2) Plates were prepared and read in two stages. First, complexes and fatty acid free BSA were diluted to 6 μM BSA in HEPES and added to the 96-well plate at 300 μL per well. A MultiProbe II HT (Perkin Elmer) (an automated liquid handling system) was used to facilitate plate preparation for high throughput screening, but any automated or manual pipetting system will suffice. The background fluorescence was then measured at the same wavelengths as used for ADIFAB2 using a Fluorolog-3 spectrofluorometer with an external Micromax 384 fluorescence plate reader (Jobin Yvon). In the second stage, 30 μL aliquots of the mutant probes were added to multiple wells of the plate, one for each fatty acid and one with fatty acid free BSA only, and the fluorescence intensity at each wavelength was again measured on the plate reader. After subtraction of the background fluorescence, the fluorescence ratio of each well was calculated.\n(§3) The fluorescence response was quantitatively compared to ADIFAB2 to search for changes in magnitude and fatty acid profile; for example the response to one fatty acid relative to another. For each probe the ratio differences (AR) between wells with each fatty acid compared to a corresponding well with fatty acid free BSA were recorded. The relative response compared to ADIFAB2 was calculated by dividing AR for each fatty acid by that for ADIFAB2 (ΔR/ΔRAD2). Probes that show large (ΔR/ΔRAD2) and different (ΔR/ΔRAD2) for different fatty acids were chosen for larger scale production and calibration. The methods described above can be used to screen other fatty acids and/or other unbound metabolites using other plate readers. We have attained equivalent results, for example, using the Gemini EM dedicated fluorescence plate reader (Molecular Devices).\n(§4) Screening was conducted by evaluating ΔR/ΔRreference as described in paragraphs 0053-0055 and Example 1 for the following fatty acids: palmitate, palmitoleate, stearate, oleate, linoleate, linolenate and arachidonate, where the reference was to ADIFAB2. The screening rate was increased by use of 384 well plates. In this case the total well volume was reduced to 100 μL and the volume of probe used per well was 10 μL. Because the identity of each mutant probe was unknown in this example, the probes of interest were organized according to phenotype. Typically, phenotypic clusters could be generated by grouping unknown probes that gave Ro and ΔR/ΔRAD2 values within 10 to 20% of each other. The clone ID specifies the second library and well position of each clone. The fluorescence ratio for zero FFAu concentration (Ro) is shown in the second column. The remaining 7 columns are the ratios of the fluorescence response (R-Ro) for each probe relative to ADIFAB2 for arachidonate, linolenate, linoleate, oleate, palmitate, palmitoleate and stearate. […]"}
{"molecule": "B1", "Ro": 0.45}
{"molecule": "B2", "Ro": 0.39}
{"molecule": "B3", "Ro": 0.25}
{"molecule": "B4", "Ro": 0.35}
{"molecule": "B5", "Ro": 0.27}
{"molecule": "B6", "Ro": 0.24}
{"molecule": "B7", "Ro": 0.28}
{"molecule": "B8", "Ro": 0.36}
{"molecule": "B9", "Ro": 0.17}
{"molecule": "B10", "Ro": 0.28}
{"molecule": "B11", "Ro": 0.38}
{"molecule": "B12", "Ro": 0.33}
{"molecule": "B13", "Ro": 0.27}
{"molecule": "B14", "Ro": 0.28}
{"molecule": "B15", "Ro": 0.32}
{"molecule": "B16", "Ro": 0.21}
{"molecule": "B17", "Ro": 0.35}
{"molecule": "B18", "Ro": 0.24}
{"molecule": "B19", "Ro": 0.22}
{"molecule": "B20", "Ro": 0.25}
{"molecule": "B21", "Ro": 0.27}
{"molecule": "B22", "Ro": 0.24}
{"molecule": "B23", "Ro": 0.29}
{"molecule": "B24", "Ro": 0.34}
{"molecule": "B25", "Ro": 0.28}
{"molecule": "B26", "Ro": 0.31}
{"assay": "Mutant probe screening: baseline fluorescence ratio Ro and fatty acid response phenotype", "type": "binding", "settings": "fluorescence ratio for zero FFAu concentration; listed as L2P12G9", "protocol": "as §1, §2, §3, §4"}
{"molecule": "B1", "Ro": 0.46}
{"assay": "Mutant probe screening: baseline fluorescence ratio Ro and fatty acid response phenotype", "type": "binding", "settings": "fluorescence ratio for zero FFAu concentration; listed as L2P21C1", "protocol": "as §1, §2, §3, §4"}
{"molecule": "B2", "Ro": 0.36}
